Data: publication PMC12756002
Numbering of substitutions follows the chain as printed. In names and notes the source's numbering stands. No constants are given. Whether binding was seen depends on the method and setting. Some entries that bind do so weakly or less than the wild type.

B1: Sis1-N56L (protein, UniProt P25294 1-352)
chain: MVKETKLYDLLGVSPSANEQELKKGYRKAALKYHPDKPTGDTEKFKEISEAFEILLDPQKREIYDQYGLEAARSGGPSFGPGGPGGAGGAGGFPGGAGGFSGGHAFSNEDAFNIFSQFFGGSSPFGGADDSGFSFSSYPSGGGAGMGGMPGGMGGMHGGMGGMPGGFRSASSSPTYPEEETVQVNLPVSLEDLFVGKKKSFKIGRKGPHGASEKTQIDIQLKPGWKAGTKITYKNQGDYNPQTGRRKTLQFVIQEKSHPNFKRDGDDLIYTLPLSFKESLLGFSKTIQTIDGRTLPLSRVQPVQPSQTSTYPGQGMPTPKNPSQRGNLIVKYKVDYPISLNDAQKRAIDENF
B2: Sis1-S49V (protein, UniProt P25294 1-352)
chain: B1 chain with S49V, L56N
B3: Sis1-E53A (protein, UniProt P25294 1-352)
chain: B1 chain with E53A, L56N
B4: Sis1-WT (protein, UniProt P25294 1-352)
chain: B1 chain with L56N
B5: Sis1-E53K (protein, UniProt P25294 1-352)
chain: B1 chain with E53K, L56N

Each binder was assayed against firefly luciferase (firefly) [luciferase: P08659] (assay: ELISA; denatured substrate (FL Rnq1 or ΔN Rnq1 400 ng, luciferase 100 ng) immobilised in microtiter wells; dilutions of Sis1-WT or mutants (0-20 or 0-25 nM) in PBS-T with 0.5% BSA, overnight at room temperature; retained Sis1 detected with an anti-Sis1 antibody; both purified).

binding, binds:
B1
B2
B3
B4
B5
